# Experimental data from the supplement of paper PMC8728848.
# This is one part of the list.
# B1: MCL (Mus musculus), Q9Z2H6 (protein)
# chain: MWLEESQMKSKGTRHPQLIPCVFAVVSISFLSACFISTCLVTHHYFLRWTRGSVVKLSDYHTRVTCIREEPQPGATGGTWTCCPVSWRAFQSNCYFPLNDNQTWHESERNCSGMSSHLVTINTEAEQNFVTQLLDKRFSYFLGLADENVEGQWQWVDKTPFNPHTVFWEKGESNDFMEEDCVVLVHVHEKWVWNDFPCHFEVRRICKLPGITFNWKPSK
# What was measured:
# Experiment in all cases: glycan array binding signal (z-score within array); higher = stronger binding
# Conditions in all cases: glycan notation: IUPAC condensed, linker removed
# [1] = biological target: Gal(b1-4)GlcNAc(b1-3)Gal(b1-4)GlcNAc(b1-3)Gal(b1-4)GlcNAc
# Outline: (§1)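 The Consortium for Functional Glycomics database supplied 3228 glycan arrays, of which those lacking an available protein sequence were dropped. The binding signal, a within-array Z-score, was averaged across arrays of the same protein sequence and across linkers. Negative scores can be read as non-binding.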
# [2] = biological target: Gal(b1-4)GlcNAc(b1-3)Gal(b1-4)[Fuc(a1-3)]GlcNAc(b1-3)Gal(b1-4)[Fuc(a1-3)]GlcNAc
# Outline: as §1
# [3] = biological target: Gal(b1-4)GlcNAc(b1-3)GalNAc
# Outline: as §1
# [4] = biological target: Gal(b1-4)GlcNAc(b1-3)[Gal(b1-4)GlcNAc(b1-6)]Gal(b1-4)GlcNAc
# Outline: as §1
# [5] = biological target: Gal(b1-4)GlcNAc(b1-3)[GlcNAc(b1-6)]Gal(b1-4)GlcNAc
# Outline: as §1
# [6] = biological target: Gal(b1-4)GlcNAc(b1-6)Gal(b1-4)GlcNAc
# Outline: as §1
# [7] = biological target: Gal(b1-4)GlcNAc(b1-6)Gal(b1-4)GlcNAc(b1-6)GalNAc
# Outline: as §1
# [8] = biological target: Gal(b1-4)GlcNAc(b1-6)GalNAc
# Outline: as §1
# [9] = biological target: Gal(b1-4)GlcNAc(b1-6)[Gal(b1-3)]GalNAc
# Outline: as §1
# [10] = biological target: Gal3S(b1-3)GalNAc
# Outline: as §1
# [11] = biological target: Gal3S(b1-3)GlcNAc
# Outline: as §1
# [12] = biological target: Gal3S(b1-3)[Fuc(a1-4)]GlcNAc
# Outline: as §1
# [13] = biological target: Gal3S(b1-4)Glc
# Outline: as §1
# [14] = biological target: Gal3S(b1-4)Glc6S
# Outline: as §1
# [15] = biological target: Gal3S(b1-4)GlcNAc
# Outline: as §1
# [16] = biological target: Gal3S(b1-4)GlcNAc6S
# Outline: as §1
# [17] = biological target: Gal3S(b1-4)[Fuc(a1-3)]Glc
# Outline: as §1
# [18] = biological target: Gal3S4S(b1-4)GlcNAc
# Outline: as §1
# [19] = biological target: Gal3S6S(b1-4)GlcNAc
# Outline: as §1
# [20] = biological target: Gal3S6S(b1-4)GlcNAc6S
# Outline: as §1
# [21] = biological target: Gal4S(b1-4)GlcNAc
# Outline: as §1
# [22] = biological target: Gal4S6S(b1-4)GlcNAc
# Outline: as §1
# [23] = biological target: Gal6S(b1-4)Glc
# Outline: as §1
# [24] = biological target: Gal6S(b1-4)Glc6S
# Outline: as §1
# [25] = biological target: Gal6S(b1-4)GlcNAc
# Outline: as §1
# [26] = biological target: Gal6S(b1-4)GlcNAc6S
# Outline: as §1
# [27] = biological target: GalNAc(a1-3)Gal
# Outline: as §1
# [28] = biological target: GalNAc(a1-3)GalNAc
# Outline: as §1
# [29] = biological target: GalNAc(b1-3)Gal
# Outline: as §1
# [30] = biological target: GalNAc(b1-3)Gal(a1-4)Gal(b1-4)GlcNAc
# Outline: as §1
# [31] = biological target: GalNAc(b1-3)GalNAc
# Outline: as §1
# [32] = biological target: GalNAc(b1-4)GlcNAc
# Outline: as §1
# [33] = biological target: Glc(a1-4)Glc
# Outline: as §1
# [34] = biological target: Glc(a1-6)Glc(a1-6)Glc
# Outline: as §1
# [35] = biological target: Glc(b1-4)Glc
# Outline: as §1
# [36] = biological target: Glc(b1-6)Glc
# Outline: as §1
# [37] = biological target: GlcA(b1-3)Gal
# Outline: as §1
# [38] = biological target: GlcA(b1-3)GlcNAc
# Outline: as §1
# [39] = biological target: GlcA(b1-6)Gal
# Outline: as §1
# [40] = biological target: GlcNAc(a1-3)Gal(b1-4)GlcNAc
# Outline: as §1
# [41] = biological target: GlcNAc(a1-6)Gal(b1-4)GlcNAc
# Outline: as §1
# [42] = biological target: GlcNAc(b1-2)Gal(b1-3)GalNAc
# Outline: as §1
# [43] = biological target: GlcNAc(b1-2)Man(a1-3)[GlcNAc(b1-2)Man(a1-6)]Man(b1-4)GlcNAc(b1-4)GlcNAc
# Outline: as §1
# [44] = biological target: GlcNAc(b1-3)Gal
# Outline: as §1
# [45] = biological target: GlcNAc(b1-3)Gal(b1-3)GalNAc
# Outline: as §1
binder,measurement,setting,value
B1,glycan array binding signal (z-score),[1],-0.456
same,glycan array binding signal (z-score),[2],0.252
same,glycan array binding signal (z-score),[3],-0.158
same,glycan array binding signal (z-score),[4],-0.072
same,glycan array binding signal (z-score),[5],-0.515
same,glycan array binding signal (z-score),[6],-0.437
same,glycan array binding signal (z-score),[7],0.16
same,glycan array binding signal (z-score),[8],-0.268
same,glycan array binding signal (z-score),[9],0.376
same,glycan array binding signal (z-score),[10],-1.04
same,glycan array binding signal (z-score),[11],0.427
same,glycan array binding signal (z-score),[12],0.263
same,glycan array binding signal (z-score),[13],-0.59
same,glycan array binding signal (z-score),[14],0.183
same,glycan array binding signal (z-score),[15],-0.202
same,glycan array binding signal (z-score),[16],-0.308
same,glycan array binding signal (z-score),[17],-0.115
same,glycan array binding signal (z-score),[18],-0.534
same,glycan array binding signal (z-score),[19],-0.639
same,glycan array binding signal (z-score),[20],-0.825
same,glycan array binding signal (z-score),[21],-0.7
same,glycan array binding signal (z-score),[22],-0.665
same,glycan array binding signal (z-score),[23],0.143
same,glycan array binding signal (z-score),[24],0.414
same,glycan array binding signal (z-score),[25],-0.272
same,glycan array binding signal (z-score),[26],-0.264
same,glycan array binding signal (z-score),[27],-0.815
same,glycan array binding signal (z-score),[28],-0.708
same,glycan array binding signal (z-score),[29],-0.537
same,glycan array binding signal (z-score),[30],-0.187
same,glycan array binding signal (z-score),[31],-0.261
same,glycan array binding signal (z-score),[32],-0.05
same,glycan array binding signal (z-score),[33],-0.072
same,glycan array binding signal (z-score),[34],-0.407
same,glycan array binding signal (z-score),[35],-0.671
same,glycan array binding signal (z-score),[36],0.507
same,glycan array binding signal (z-score),[37],-0.093
same,glycan array binding signal (z-score),[38],0.082
same,glycan array binding signal (z-score),[39],0.661
same,glycan array binding signal (z-score),[40],0.647
same,glycan array binding signal (z-score),[41],-0.566
same,glycan array binding signal (z-score),[42],0.546
same,glycan array binding signal (z-score),[43],-0.705
same,glycan array binding signal (z-score),[44],-0.508
same,glycan array binding signal (z-score),[45],-0.876

# A different layout for part of the listing above:
binder | measurement | setting | value
B1 | glycan array binding signal (z-score) | [17] | -0.115
same | glycan array binding signal (z-score) | [23] | 0.143
same | glycan array binding signal (z-score) | [27] | -0.815
